PubChem BioAssay AID1347075 (National Center for Advancing Translational Sciences (NCATS), 2019)
Screen size: about 400,000 compounds; about 5,500 (1.4%) were called active. The shares of active, inactive and inconclusive entries below differ from those in the screen. The call rests on the fitted dose curve; in most records, active means well fitted cell-killing curve with a large enough effect; inconclusive means small, poorly fitted or top-dose-only effect, or effect the other way; inactive means flat fitted curve, though single readings scatter. Potencies of inconclusive entries are doubtful fits and often do not repeat.

assay: qHTS assay for MDR1-selective chemotherapeutics: Primary screen using the parental adenocarcinoma cell KB-3-1; conditions: KB-3-1 viability, CellTiter-Glo ATP luminescence, 72 h; activity change, negative = cytotoxic: at 46.1 µM (top of the series); further: nearly all actives have a fitted effect of over 60% in size
In short: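 Using CellTiter-Glo luminescence, growth of non-resistant KB-3-1 adenocarcinoma cells is assessed 72 h after pin-tool compound addition at 37 °C. Normalized responses across the concentration series yield fitted curves.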
On the % scale 0 is the no-effect control and ±100 the full control effect; potency means the concentration at half of the fitted maximal effect.

| Compound | activity change, negative = cytotoxic | Potency |
| --- | --- | --- |
| Cc1nc(C)c(C(=O)N2CCCC(C(=O)c3ccc4ccccc4c3)C2)s1 (centres undefined) | inactive: -0.991% |  |
| O=C1c2ccccc2S(=O)(=O)c2cc(C(=O)N3CCN(c4ccccc4)CC3)ccc21 |  | inconclusive: 29.1 µM [cytotoxic, single point] |
| COc1ccc(OC)c(C(=O)CN2C(=O)C(=O)N(C3CCCC3)C2=O)c1 | inactive: -0.895% |  |
| CCOC(=O)c1cnc2ccc(OCC)cc2c1NCCCN1CCOCC1 | inconclusive: -50.5% |  |
| CCN(CC)c1ccc(/C=N/NC(=O)c2ccoc2C)c(O)c1 |  | active: 11.6 µM |
| CCOC(=O)CC(=O)CSc1ncnc2c1cnn2-c1ccccc1 |  | inconclusive: 20.6 µM [cytotoxic, single point] |
| CCCC(C(=O)n1nc(C)cc1C)C(NS(=O)(=O)c1ccc(C)cc1)c1ccccc1 (centres undefined) |  | inconclusive: 25.9 µM [cytotoxic, single point] |
| CCOP(=O)(c1ccccc1)c1nc(-c2ccccc2C)oc1N1CCCCC1 (centres undefined) |  | inconclusive: 23.1 µM [cytotoxic, single point] |
| CCCn1c2c(c(=N)c3c1CCC3)CCCC2 |  | inconclusive: 29.1 µM [cytotoxic, single point] |
| O=C(c1ccc(N2CCN(C(=O)c3ccc(F)c(F)c3)CC2)cc1)c1cccc(F)c1 |  | inconclusive: 7.31 µM [cytotoxic, partial curve] |
| Cn1nc(-c2ccccc2)c(CSc2cccc(Cl)c2)c1Cl |  | active: 23.1 µM |
| CN(C)S(=O)(=O)c1ccc(N2CCCC2)c(C(=O)Nc2nc3ccccc3s2)c1 |  | inconclusive: 0.184 µM [cytotoxic, full curve] |
| COC(=O)[C@]12CCCCC=C1N(CCC1=CCCCC1)C(=O)[C@H](CC(=O)NCc1cccs1)C2 |  | inconclusive: 29.1 µM [cytotoxic, single point] |
| CCOC(=O)c1nc(-c2ccccc2)sc1C(C)=O |  | inconclusive: 6.51 µM [rising, full curve] |
| COc1ccc(CN(C)Cc2cc(=O)oc3cc(C)c(C(C)C)cc23)cc1OC |  | inconclusive: 23.1 µM [cytotoxic, single point] |
| Cc1ncc([N+](=O)[O-])n1S(=O)(=O)c1cc(Cl)ccc1Cl | inactive: 28.1% |  |
| CCOc1ccc(NC(=O)CN(C)C(=O)c2ccc(OCC3CCCO3)cc2)cc1OCC (centres undefined) |  | inconclusive: 18.4 µM [rising, single point] |
| Cc1oc2c(c1C(=O)c1ccc(Cl)cc1)C(=O)C(=O)c1ccccc1-2 |  | inconclusive: 18.4 µM [cytotoxic, single point] |
| Cc1cc(C)c(NC(=O)CS(=O)CC(=O)NCCN2CCCCCC2)c(C)c1 (centres undefined) | inactive: 1.83% |  |

Another view of some results above.
Cn1nc(-c2ccccc2)c(CSc2cccc(Cl)c2)c1Cl
  Potency: active: 23.1 µM
CN(C)S(=O)(=O)c1ccc(N2CCCC2)c(C(=O)Nc2nc3ccccc3s2)c1
  Potency: inconclusive: 0.184 µM [cytotoxic, full curve]
